Read-outs that look alike come from different tables or passages of the source. Results are given in words; binding and its absence hold for the method and conditions named. In cells and extracts the contact can be indirect. Here binding means that the protein was enriched with, or labelled near, the bait; the list need not be complete. Sequences can lack the tags named with a protein. Blank lines part the entries; values can stand above or below the molecule they belong to.
Assays:
[1] = molecular target: T1, ASGR1 with a C-Flag tag, stably overexpressed in HepG2 cells (human) (UniProt P07306); experiment: affinity purification with mass spectrometry; lysate of HepG2 cells stably overexpressing ASGR1 (C-Flag tag); anti-Flag antibody or isotype mouse IgG overnight at 4°C, Protein A/G-Agarose beads, five washes with IP Lysis buffer; solution and beads samples by LC-MS/MS; proteins in the IgG control excluded
T1 sequence: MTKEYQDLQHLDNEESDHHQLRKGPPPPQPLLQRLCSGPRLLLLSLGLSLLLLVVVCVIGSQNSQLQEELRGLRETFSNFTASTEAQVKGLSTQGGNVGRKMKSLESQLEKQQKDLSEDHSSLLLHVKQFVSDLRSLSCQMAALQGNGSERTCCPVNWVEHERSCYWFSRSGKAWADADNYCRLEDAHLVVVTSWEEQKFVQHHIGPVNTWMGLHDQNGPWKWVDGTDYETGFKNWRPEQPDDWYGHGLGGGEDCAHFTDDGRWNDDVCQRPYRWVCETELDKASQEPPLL

Sequences of proteins named here, by UniProt entry; tags and fusion partners are left off.
UniProt Q15165: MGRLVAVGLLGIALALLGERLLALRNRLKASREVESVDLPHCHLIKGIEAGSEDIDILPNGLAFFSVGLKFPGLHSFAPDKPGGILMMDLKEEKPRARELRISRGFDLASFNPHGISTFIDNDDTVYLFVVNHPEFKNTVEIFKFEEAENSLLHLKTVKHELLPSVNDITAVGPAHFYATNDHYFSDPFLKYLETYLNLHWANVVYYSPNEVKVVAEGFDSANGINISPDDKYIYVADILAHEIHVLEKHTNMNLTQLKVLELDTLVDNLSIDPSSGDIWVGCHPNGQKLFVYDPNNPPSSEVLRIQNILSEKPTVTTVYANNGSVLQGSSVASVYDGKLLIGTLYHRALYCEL

[2] = molecular target: T1, ASGR1 with a C-Flag tag, stably overexpressed in HepG2 cells (human); experiment: as above; remark: listed apart in the source

binding [1]: binds
Molecule: paraoxonase-2 (PON2), endogenous in HepG2 cells (from UniProt Q15165 1-354)

binding [2]: binds
B1: GPX8, endogenous in HepG2 cells (protein, UniProt Q8TED1 1-209)
chain: MEPLAAYPLKCSGPRAKVFAVLLSIVLCTVTLFLLQLKFLKPKINSFYAFEVKDAKGRTVSLEKYKGKVSLVVNVASDCQLTDRNYLGLKELHKEFGPSHFSVLAFPCNQFGESEPRPSKEVESFARKNYGVTFPIFHKIKILGSEGEPAFRFLVDSSKKEPRWNFWKYLVNPEGQVVKFWKPEEPIEVIRPDIAALVRQVIIKKKEDL
